# Results: PubChem BioAssay AID743255 (National Center for Advancing Translational Sciences (NCATS), 2014)
# Protein sequences, listed by entry. Tags and fused reporters are not part of them. Lines headed by an entry give the natural chain unless they say otherwise; changes in a name come on top.
# UniProt O94782: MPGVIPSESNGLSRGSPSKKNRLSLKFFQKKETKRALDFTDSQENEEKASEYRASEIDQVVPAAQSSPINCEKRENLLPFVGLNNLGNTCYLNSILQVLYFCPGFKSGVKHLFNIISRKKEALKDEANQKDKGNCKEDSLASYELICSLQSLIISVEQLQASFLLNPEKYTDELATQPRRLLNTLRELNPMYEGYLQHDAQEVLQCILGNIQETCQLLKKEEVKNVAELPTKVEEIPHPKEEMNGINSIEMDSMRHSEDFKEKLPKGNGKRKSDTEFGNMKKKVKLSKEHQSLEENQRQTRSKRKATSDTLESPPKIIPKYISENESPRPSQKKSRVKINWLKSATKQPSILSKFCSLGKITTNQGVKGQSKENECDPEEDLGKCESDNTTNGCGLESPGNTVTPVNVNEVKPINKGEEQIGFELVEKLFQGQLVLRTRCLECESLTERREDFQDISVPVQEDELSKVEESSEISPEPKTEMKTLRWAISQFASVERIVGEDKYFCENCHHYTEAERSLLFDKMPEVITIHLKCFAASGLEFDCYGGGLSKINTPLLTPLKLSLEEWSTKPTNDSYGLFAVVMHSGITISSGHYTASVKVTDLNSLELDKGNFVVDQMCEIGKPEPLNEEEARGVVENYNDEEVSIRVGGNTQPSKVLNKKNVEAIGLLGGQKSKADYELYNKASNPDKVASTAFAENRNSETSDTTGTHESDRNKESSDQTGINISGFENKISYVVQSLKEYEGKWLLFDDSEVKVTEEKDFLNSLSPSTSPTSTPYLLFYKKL
# Out of some 390,000 compounds screened, about 910 (0.23%) were called active. The inconclusive results got no clear call from the source; some entries with a clear call stand among them for comparison. Calls come from the whole dose curve; as a rule, active = well fitted inhibition curve with a large enough effect; inconclusive = small, poorly fitted or top-dose-only effect; inactive = no such curve, though single readings can be large or run the other way. A potency beside an inconclusive call is a rough fit, not a confirmed value.
# Target: Ubiquitin carboxyl-terminal hydrolase 1 (Homo sapiens) (UniProt O94782)
# Test: Inhibitors of USP1/UAF1: Primary Screen; note: nearly all actives have a fitted effect of over 60% in size
# Conditions: recombinant USP1/UAF1, Ub-Rhodamine cleavage fluorescence; series mostly up to 57.1 µM
# Method in brief: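 High-throughput fluorogenic screen: 1nM USP1/UAF1 complex, Ub-Rho substrate 150nM final, 50mM HEPES pH 7.8 with 0.5mM EDTA, 0.1 mg/ml BSA, 1mM TCEP and 0.01% Tween-20.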
# Potency is the fitted concentration of half-maximal effect.
row,Compound,Potency
1,CC(C)COc1ccc(C(=S)N2CCCC2)cc1,"inconclusive: 2.24 µM [inhibitor, full curve, poor fit]"
2,O=C1C(O)=CC(=C(c2ccccc2)c2ccccc2)c2ccccc21,"inconclusive: 35.5 µM [inhibitor, single point]"
3,CCOC(=O)c1c(C(F)(F)F)nc2ncccn12,inactive
4,CC(=O)c1ccc(NC(=O)c2ccc([N+](=O)[O-])o2)cc1,inactive
5,O=[N+]([O-])c1cc(Cl)cc(/C=N/NC(=S)Nc2cc(S(=O)(=O)N3CCOCC3)ccc2Cl)c1O,"inconclusive: 35.5 µM [inhibitor, partial curve]"
6,CCOc1ccc(-n2ccnc2SCC(=O)Nc2cc(C)ccc2C)cc1,inactive
7,CCSC1=N/C(=C\C=C2/Oc3ccccc3N2CC)C(=O)S1,"inconclusive: 28.2 µM [inhibitor, partial curve]"
8,COc1cc(S(=O)(=O)NCCc2c(C)[nH]c3ccc(C)cc23)ccc1Br,"inconclusive: 8.91 µM [inhibitor, partial curve, poor fit]"
9,O=C(Nc1ccc(Br)cc1)c1cc(-c2ccc3c(c2)OCO3)on1,"inconclusive: 0.562 µM [inhibitor, full curve, poor fit]"
10,CS(=O)(=O)c1ccc2c(c1)sc1nc(=O)c(/C=C3/C=CC(=O)C(O)=C3)c(N)n12,"inconclusive: 35.5 µM [inhibitor, partial curve]"
11,Cn1cc(S(=O)(=O)N2CCc3ccccc32)cc1C(=O)Nc1ccc(Cl)cc1,inactive
12,COc1cc(OC)cc(-c2nnc(Nc3nc4c(F)cccc4s3)o2)c1,"inconclusive: 17.8 µM [inhibitor, partial curve]"
13,C=CCC[C@@H](Cc1ccc(F)cc1)C(=O)OC[C@@H](C)NC(=O)[C@H](CC=C)CC(=O)N(CCO)Cc1ccccc1,"inconclusive: 5.62 µM [inhibitor, partial curve]"
14,CC(C)C[C@@H](CNCC(=O)[C@H](C)NC(=O)c1[nH]cnc1C(=O)N[C@@H](C)CN)NC(=O)c1nc[nH]c1C(=O)N[C@@H](CC(=O)O)C(=O)O,"inconclusive: 1.58 µM [inhibitor, full curve]"
15,COc1cn(CC(=O)Nc2cc(C)cc(C)c2)c(CN2CCCCC2)cc1=O,"inconclusive: 22.4 µM [inhibitor, partial curve, poor fit]"
16,CCC(C)S(=O)(=O)c1oc(-c2cccs2)nc1S(=O)(=O)c1ccccc1 (stereo not given),"inconclusive: 31.6 µM [inhibitor, partial curve]"
17,CCOc1ccc2nc(Cl)c(C3CC(c4ccc(C)cc4)=NN3C(=O)CCC(=O)O)cc2c1 (stereo not given),"inconclusive: 44.7 µM [inhibitor, partial curve]"
18,O=[N+]([O-])c1cccc(CNCc2ccccc2)c1,"inconclusive: 4.47 µM [inhibitor, full curve]"
19,Clc1cccc(CNc2nc(-c3cccnc3)nc3ccccc23)c1,"inconclusive: 50.1 µM [inhibitor, partial curve, poor fit]"
20,CCCNC(=O)CN1C(=O)NC(CCc2ccccc2)C1=O (stereo not given),"inconclusive: 4.47 µM [inhibitor, partial curve]"
21,CCOC(=O)C1(CC2CCCCO2)CCN(Cc2cccnc2)CC1 (stereo not given),"inconclusive: 5.62 µM [inhibitor, single point]"
22,CCOC(=O)N1CCc2c(sc3c2c(=O)n(Cc2ccccc2)c(=O)n3CC(=O)Nc2ccc(F)cc2)C1,"inconclusive: 5.62 µM [inhibitor, single point]"

row,Compound,Potency
1,COC(=O)[C@H](C)NC(=O)Nc1ccc(S(N)(=O)=O)cc1,inactive
2,COC(=O)CCCC1=CC2=C(c3ccccc3)C(=O)C(C)(OC(=O)C3CCCC3)C(=O)C2=CN1CCN1CCOCC1 (stereo not given),"inconclusive: 44.7 µM [inhibitor, partial curve, poor fit]"
3,CCCCSc1n[nH]c(=S)c2nc[nH]c12,inactive
4,CC1CCN(S(=O)(=O)c2ccc(NC(=O)CN3CCCC(C)C3)cc2)CC1 (stereo not given),"inconclusive: 31.6 µM [inhibitor, partial curve]"
5,CCCCNc1c(-c2cccc(-c3ccc(OC)cc3)c2)nc2ccc(C)cn12,"inconclusive: 31.6 µM [inhibitor, partial curve, poor fit]"
6,CC(C)C(OC(=O)c1ccco1)C(=O)NCc1ccco1 (stereo not given),inactive
7,Cc1cccc(NC(=O)c2ccc(C(=O)c3ccccc3)cc2)n1,"inconclusive: 0.355 µM [inhibitor, full curve, poor fit]"
8,NC(=O)c1c(NC(=O)C2COc3ccccc3O2)sc2c1CCN(Cc1ccccc1)C2 (stereo not given),"inconclusive: 35.5 µM [inhibitor, single point]"
9,O=C(Nc1ccccc1)c1cccc(N2CCCS2(=O)=O)c1,inactive
10,COc1cccc(Nc2ncccc2C(=O)NCc2ccccc2)c1,"inconclusive: 39.8 µM [inhibitor, partial curve, poor fit]"
11,COc1cc(N/N=C(\C)c2ccc(N)cc2)nc(-c2ccccc2)n1,"inconclusive: 14.1 µM [inhibitor, partial curve]"
12,COc1ccccc1CNC(=O)CCc1c(C)c2cc3c(C)coc3cc2oc1=O,"inconclusive: 7.08 µM [inhibitor, partial curve, poor fit]"
13,Cc1ccc(C(C)C)c(OCC(=O)NN=C2CCCC(=O)C2)c1,"inconclusive: 50.1 µM [inhibitor, single point]"
14,C=CCSc1ncc(-c2ccccc2)cn1,"inconclusive: 44.7 µM [inhibitor, partial curve, poor fit]"
15,C#CCNC(=O)C1=C[C@@H](c2ccccc2)C[C@@H](OCCCCO)O1,"inconclusive: 6.31 µM [inhibitor, partial curve]"
16,CC1=C(C#N)C(=O)NC(=O)/C1=C\c1ccc(-c2cc(C)c(C)cc2[N+](=O)[O-])o1,"inconclusive: 31.6 µM [inhibitor, partial curve]"
17,Cc1ccc(O)c(NC(=O)c2cc(-c3ccc(F)cc3)no2)c1,inactive
18,Cc1cc(N2C3CCC2CC(O)(c2ccc(F)cc2)C3)nc(-c2ccccc2)n1 (stereo not given),"inconclusive: 39.8 µM [inhibitor, single point]"
19,CCOC(=O)C1(Cc2cccc(OC)c2)CCN(C/C=C/c2ccc(OC)cc2)CC1,inactive
20,CCCCCC(NC(=O)C1CCN(C(=O)[C@@H](NS(=O)(=O)c2ccc(C)cc2)C(C)C)CC1)C(=O)O (stereo not given in full),"inconclusive: 14.1 µM [inhibitor, partial curve]"
21,O=c1[nH]c(/C=C\c2cccc(F)c2)nc(O)c1[N+](=O)[O-],inactive
22,Cc1ccc(Nc2ncccc2C(=O)NCc2cccs2)c(C)c1,"inconclusive: 50.1 µM [inhibitor, partial curve, poor fit]"

# 3 entries from above, as tab-separated lines:
row	Compound	Potency
7	Cc1cccc(NC(=O)c2ccc(C(=O)c3ccccc3)cc2)n1	inconclusive: 0.355 µM [inhibitor, full curve, poor fit]
8	NC(=O)c1c(NC(=O)C2COc3ccccc3O2)sc2c1CCN(Cc1ccccc1)C2 (stereo not given)	inconclusive: 35.5 µM [inhibitor, single point]
9	O=C(Nc1ccccc1)c1cccc(N2CCCS2(=O)=O)c1	inactive

# Going on with the list.

row,Compound,Potency
1,Cc1cccc(N2CCN(C(=O)/C=C/c3cccs3)CC2)c1C,inactive
2,Cc1ccc2ccccc2c1NC(=O)c1ccco1,inactive
3,CC(C)(C)OC(=O)NCC12C=CC(O1)C1C(=O)N(Cc3ccccc3)C(=O)C12 (stereo not given),inactive
4,CCOCCCN(Cc1ccco1)C(=O)c1cc2c(s1)-c1c(C)cccc1OC2,"inconclusive: 31.6 µM [inhibitor, partial curve]"
5,COc1ccc(-c2nnc3sc(-c4cccs4)nn23)cc1OC,inactive
6,CCOC(=O)CSc1nc2cc3c(cc2cc1C)OCO3,"inconclusive: 31.6 µM [inhibitor, single point]"
7,CC[C@@H]1CC=C[C@H]2[C@H]1C(=O)N(Cc1ccccc1)[C@H]2c1ccoc1,"inconclusive: 7.94 µM [inhibitor, partial curve]"
8,S=C(Nc1ccc2nsnc2c1)NC1CCCCC1,inactive
9,CCOc1cccc(NCc2cc3c(C(C)(C)C)nn(-c4ccccc4)c3[nH]c2=O)c1,"inconclusive: 15.8 µM [inhibitor, partial curve]"
10,O=C(CCN1C(=O)/C(=C/C=C/c2ccccc2)SC1=S)Nc1cccnc1,"inconclusive: 35.5 µM [inhibitor, partial curve]"
11,COc1cc2c(cc1OC)C(COc1ccc(C(C)C)cc1)NCC2 (stereo not given),inactive
12,CC(C)CNc1nc(N)c([N+](=O)[O-])c(NCc2ccccc2)n1,"inconclusive: 1 µM [inhibitor, full curve, poor fit]"
13,CC(Oc1cccnc1[N+](=O)[O-])C(=O)Nc1cccc(Cl)c1 (stereo not given),inactive
14,O=C1CSC2(C(=O)N(Cc3cccc(C(F)(F)F)c3)c3ccccc32)N1c1ccc(F)c(F)c1 (stereo not given),"inconclusive: 0.251 µM [inhibitor, full curve, poor fit]"
15,C=CCOC(=O)C1=C[C@H](c2csc3ccccc23)C[C@H](OCc2ccc(CO)cc2)O1,"inconclusive: 44.7 µM [inhibitor, partial curve, poor fit]"
16,Cn1cncc1C#Cc1ccc2c(=O)c3ccccc3oc2c1,"inconclusive: 6.31 µM [inhibitor, partial curve]"
17,NC(=O)N1c2ccccc2C=Cc2ccccc21,"inconclusive: 31.6 µM [inhibitor, single point]"
18,COc1ccc(-c2ccc(-c3noc(-c4cccs4)n3)c(OC)n2)cc1,"inconclusive: 39.8 µM [inhibitor, partial curve]"
19,CCc1ccc(OCC(=O)N(Cc2ccc(C(C)C)cc2)C2CCS(=O)(=O)C2)cc1 (stereo not given),inactive
20,Cc1ccc(Cl)c(NC(=S)N(CCCN2CCOCC2)Cc2ccco2)c1,"inconclusive: 3.55 µM [inhibitor, single point]"
21,Cc1ccc(C)n1-c1ccc(C(=O)N2CCOCC2)cc1,"inconclusive: 35.5 µM [inhibitor, partial curve, poor fit]"
